# Screening data, single-dose tests

Sequences of proteins named here, by UniProt entry; tags and fusion partners are left off.
UniProt I6X8D2, whole entry: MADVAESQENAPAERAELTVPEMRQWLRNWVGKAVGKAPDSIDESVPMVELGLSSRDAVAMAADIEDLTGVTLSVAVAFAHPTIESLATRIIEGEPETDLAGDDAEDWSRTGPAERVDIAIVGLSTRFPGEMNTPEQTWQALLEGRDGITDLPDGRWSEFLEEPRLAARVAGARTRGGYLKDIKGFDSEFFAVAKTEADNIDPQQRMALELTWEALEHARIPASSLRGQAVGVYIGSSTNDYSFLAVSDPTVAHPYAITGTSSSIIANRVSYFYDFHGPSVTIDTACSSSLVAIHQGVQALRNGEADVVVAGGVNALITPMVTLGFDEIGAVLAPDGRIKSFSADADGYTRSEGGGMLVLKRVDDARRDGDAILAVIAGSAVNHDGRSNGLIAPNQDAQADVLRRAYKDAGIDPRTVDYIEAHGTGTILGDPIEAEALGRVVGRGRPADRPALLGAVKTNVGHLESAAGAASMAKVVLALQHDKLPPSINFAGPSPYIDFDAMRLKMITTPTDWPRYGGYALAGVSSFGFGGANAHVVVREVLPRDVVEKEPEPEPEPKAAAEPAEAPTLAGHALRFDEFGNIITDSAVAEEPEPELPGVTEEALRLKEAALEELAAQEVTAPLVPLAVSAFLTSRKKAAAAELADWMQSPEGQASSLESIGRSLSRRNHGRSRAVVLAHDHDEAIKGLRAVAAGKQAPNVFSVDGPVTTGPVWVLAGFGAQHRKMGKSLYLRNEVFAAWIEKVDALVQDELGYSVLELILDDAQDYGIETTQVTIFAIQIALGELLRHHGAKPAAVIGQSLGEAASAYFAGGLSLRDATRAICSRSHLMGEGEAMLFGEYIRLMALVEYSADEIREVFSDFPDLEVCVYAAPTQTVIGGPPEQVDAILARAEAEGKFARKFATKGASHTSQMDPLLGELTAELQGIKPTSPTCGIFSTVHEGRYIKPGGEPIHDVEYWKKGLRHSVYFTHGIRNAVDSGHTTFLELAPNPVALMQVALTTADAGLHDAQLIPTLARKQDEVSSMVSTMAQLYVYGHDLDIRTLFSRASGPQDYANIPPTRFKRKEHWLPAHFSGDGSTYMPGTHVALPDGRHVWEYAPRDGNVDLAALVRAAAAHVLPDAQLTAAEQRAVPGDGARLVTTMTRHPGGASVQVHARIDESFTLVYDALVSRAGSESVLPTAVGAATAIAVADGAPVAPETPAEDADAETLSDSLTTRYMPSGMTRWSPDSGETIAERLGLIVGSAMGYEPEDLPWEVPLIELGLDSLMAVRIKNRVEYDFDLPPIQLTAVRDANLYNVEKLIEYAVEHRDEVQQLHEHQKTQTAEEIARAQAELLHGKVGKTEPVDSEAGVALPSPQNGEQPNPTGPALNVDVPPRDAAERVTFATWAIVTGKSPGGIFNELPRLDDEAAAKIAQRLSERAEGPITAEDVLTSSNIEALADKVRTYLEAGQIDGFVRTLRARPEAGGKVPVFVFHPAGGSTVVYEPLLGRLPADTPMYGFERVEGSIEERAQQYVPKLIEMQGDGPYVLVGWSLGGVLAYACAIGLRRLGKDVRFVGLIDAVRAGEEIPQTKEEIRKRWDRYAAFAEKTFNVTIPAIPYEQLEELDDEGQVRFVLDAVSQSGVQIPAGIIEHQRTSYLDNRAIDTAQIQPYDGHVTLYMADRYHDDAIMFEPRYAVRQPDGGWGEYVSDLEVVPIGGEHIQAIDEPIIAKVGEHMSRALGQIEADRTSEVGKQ
UniProt P9WNZ1, whole entry: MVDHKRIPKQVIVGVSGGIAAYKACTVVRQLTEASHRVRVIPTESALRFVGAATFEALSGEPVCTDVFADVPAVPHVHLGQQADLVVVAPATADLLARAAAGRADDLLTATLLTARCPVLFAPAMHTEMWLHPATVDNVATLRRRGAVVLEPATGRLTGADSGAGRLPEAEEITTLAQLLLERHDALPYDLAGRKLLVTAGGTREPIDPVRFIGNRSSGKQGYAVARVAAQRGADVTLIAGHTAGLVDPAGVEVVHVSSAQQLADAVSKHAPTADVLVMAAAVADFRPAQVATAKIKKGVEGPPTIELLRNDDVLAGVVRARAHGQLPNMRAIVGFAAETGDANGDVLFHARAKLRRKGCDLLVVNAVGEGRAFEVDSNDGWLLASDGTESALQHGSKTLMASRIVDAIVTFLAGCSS
UniProt P9WFT3, whole entry: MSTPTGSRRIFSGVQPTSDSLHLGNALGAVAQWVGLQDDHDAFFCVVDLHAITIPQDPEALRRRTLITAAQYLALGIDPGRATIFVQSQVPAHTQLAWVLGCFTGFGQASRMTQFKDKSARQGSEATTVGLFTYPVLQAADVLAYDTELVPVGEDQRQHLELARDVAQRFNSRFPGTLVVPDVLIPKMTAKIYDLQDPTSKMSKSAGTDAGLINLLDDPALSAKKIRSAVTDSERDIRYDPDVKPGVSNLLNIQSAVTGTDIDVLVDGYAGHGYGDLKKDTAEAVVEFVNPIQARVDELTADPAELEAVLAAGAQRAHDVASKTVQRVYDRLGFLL

Each number is a percent effect as filed.
The record does not define 0% and 100%; most values in the screen are far below 50% and negative numbers occur (in some assays of this library far below -100).
This is an unselected part of the compounds tested.
Two or more numbers in one place are separate tests of the same structure; such repeats can differ widely.
A dash means the value is not listed here; it may have been measured.

Pks13 thioesterase: 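Enzyme assay of the thioesterase domain of polyketide synthase 13; the read-out is not stated. Target: Polyketide synthase Pks13, Mycobacterium tuberculosis (UniProt I6X8D2). Compounds at 30 µM. The record gives no direction; the compounds picked for IC50 retests had high values, so higher reads as stronger inhibition. Of about 67,000 compounds tested this way, about 300 (0.46%) reached 50% or more in at least one test.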
CoaBC: 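Coenzyme A biosynthesis protein CoaBC, Mycobacterium tuberculosis (UniProt P9WNZ1). Enzyme assay of CoaBC with a phosphate dye (Biomol Green) read at 650 nm. Compounds at 30 µM. Higher reads as stronger inhibition, judged from the few compounds that gave an IC50. Most strong results did not repeat in a second test. Of about 67,000 compounds tested this way, about 40 (0.06%) reached 50% or more in at least one test.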
Leishmania in macrophages: 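Cell assay of Leishmania donovani living inside macrophages; the read-out is not stated. Tested at 30 µM. Higher reads as stronger inhibition (inferred: compounds with an IC50 in retests scored well above the rest). Of about 69,000 compounds tested this way, about 1,000 (1.5%) reached 50% or more in at least one test.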
MtTrpRS: 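Enzyme assay of tryptophanyl-tRNA synthetase; the read-out is not stated. Target: Tryptophan-tRNA ligase, Mycobacterium tuberculosis (UniProt P9WFT3). Tested at 10 µM. Direction is not recorded; retested compounds ran higher, which suggests that high means inhibition. Size under these conditions: about 65,000 compounds, about 64 of them at 50% or above in at least one test.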

| # | Compound | Pks13 thioesterase | CoaBC | Leishmania in macrophages | MtTrpRS |
|---|---|---|---|---|---|
| 1 | `CN(C)C(=O)COC1COC2(CCN(CC3CCOCC3)CC2)C1.O=C(O)C(F)(F)F` (stereo not drawn) | - | - | 6.196 | - |
| 2 | `Cc1ccc(C(=O)N2CCC3(CCN(c4ccsc4)C3=O)C2)cn1` (stereo not drawn) | 14.48 | 6.754 | - | 7.301 |
| 3 | `O=C(C1CC(=O)N(c2n[nH]c3cc(Br)ccc23)C1)N1CCCC1` (stereo not drawn) | -15.19 | 1.823 | 31.28 | 0.9646 |
| 4 | `CN(C)C[C@H]1OC[C@@H]2CCN(S(=O)(=O)c3ccccc3)C[C@@H]21` | -3.396 | -1.158 | - | 6.424 |
| 5 | `Cc1ccc2[nH]c(CN(C)c3cc(CN)nc(C)n3)nc2c1` | 2.318 | 15.45 | -10.16 | 5.948 |
| 6 | `Cc1n[nH]c(C)c1NC(=O)CN1CCOC(Cn2cccn2)C1` (stereo not drawn) | -21.92 | 4.359 | 41.61 | -0.5473 |
| 7 | `CCOCCOC(C)C(=O)Nc1nccn1Cc1ccccc1` (stereo not drawn) | -0.4201 | -2.334 | 12.21 | 2.874 |
| 8 | `Cc1cc(CNCC2Cn3nnc(C)c3CO2)oc1C` (stereo not drawn) | 3.411 | 3.594 | - | 1.762 |
| 9 | `Cc1cc(C(=O)NC(CC(C)C)C(=O)Nc2cc[nH]n2)c(C)o1` (stereo not drawn) | -19.08 | 7.273 | 8.129 | -1.784 |
| 10 | `O=C(O)C(F)(F)F.O=C(O)C(F)(F)F.[H][C@]12C[C@@H](Cn3cncn3)N(C)[C@@]1([H])CCN(Cc1ccsc1)C2` | - | - | 24.76 | - |
| 11 | `O=C(c1ccc2[nH]ccc2c1)N1CCn2cnc(COCC3CC3)c2C1` | -2.121 | 3.676 | 15.43 | 4.961 |
| 12 | `CC(C)NC(=O)N1CCC2(CC1)COc1ccccc1S(=O)(=O)N(C)C2` | -13.9 | -12.59 | 7.046 | -6.08 |
| 13 | `Cc1cc(F)ccc1C(=O)N1C[C@@H]2COC[C@]2(COCC2CC2)C1` | -28.24 | - | - | -4.942 |
| 14 | `CCOc1ncnc2c1CCN(c1cc(C(F)(F)F)ncn1)CC2` | 25.32 | -3.226 | 2.029 | -10.13 |
| 15 | `COc1cc(C(=O)NCc2ccc3c(c2)CCCN3C)cc(OC)c1Br` | 36.65 | 4.348 | 34.34 | 1.467 |
| 16 | `[H][C@]12CCN(C(=O)NC3CCCC3)CC[C@@]1([H])S(=O)(=O)N(CC(C)C)C2` | - | - | 5.795 | - |
| 17 | `COC(=O)C1CCCN1Cc1ccco1` (stereo not drawn) | -13.93 | 4.833 | -1.399 | -7.434 |
| 18 | `CN(C)c1ncc2c(n1)CN(C1CCSCC1)C2=O` | -12.96 | 3.695 | -39.14 | -4.534 |
| 19 | `CN(C)CCN(C(=O)Cc1ccc2c(c1)OCCO2)C1CCN(C)CC1` | 0.8085 | 2.427 | - | - |
| 20 | `CC(C)C(=O)NCCNC(=O)C12CCC(=O)N1c1cc(Cl)ccc1S2` (stereo not drawn) | -4.974 | 3.226 | 1.015 | -5.509 |
| 21 | `CC(NCc1cccn1C)c1noc(-c2ccc(Cl)cc2)n1` (stereo not drawn) | -13.23 | 3.74 | 9.909 | -2.2 |
| 22 | `[H][C@]12CCC[C@@]1(COCc1ccccn1)CN(Cc1ccccn1)C2` | - | - | 8.298 & 8.463 | - |
| 23 | `Cc1ccc(C(=O)N2CCSCC2)cc1NC(C)C` | 11.16 | -0.9756 | 2.723 | -0.9029 |
| 24 | `CC(C)COCC1CN(Cc2cnn(C)c2)Cc2ncn(C)c21` (stereo not drawn) | -9.061 | 0.1318 | -2.905 | -4.071 |
| 25 | `CC(C)c1nc(CN2CCN(CC(O)c3ccccc3)CC2)no1` (stereo not drawn) | -11.34 | 3.69 | 22.27 | -7.412 |
| 26 | `Cc1ccc(-c2ccnc(N3CCC4(CCO4)CC3)n2)c(C)n1` | -1.632 | 0.2451 | -10.56 | 2.099 |
| 27 | `Cc1ccc(NC2CCN(C(=O)c3ccc(Cl)o3)CC2)nn1` | -1.257 | -2.128 | -13.69 | 4.874 |
| 28 | `Cc1cn(CC(=O)NC2CCC(C(=O)O)CC2)c2ccccc12` (stereo not drawn) | -11.99 | 2.17 | -10.44 | 1.939 |
| 29 | `O=C(O)C(F)(F)F.c1cnc(N2CCCC3(COCCN(CC4CC4)C3)C2)nc1` (stereo not drawn) | - | - | 28.32 | - |
| 30 | `O=C(Nc1ccc(F)cc1F)Nc1c[nH]c(=O)[nH]c1=O` | -3.821 | 5.45 | 5.342 | 1.874 |
| 31 | `Cc1nc(C)n(CC2CCCN(Cc3nc(-c4ccco4)no3)C2)n1` (stereo not drawn) | 5.999 | 2.066 | -2.809 | -2.1 |
| 32 | `COC(=O)CC1CN(Cc2ccn(-c3ccc(F)cc3)n2)CCO1` (stereo not drawn) | 3.305 | 1.595 | 19.73 | -2.385 |
| 33 | `Cc1cc(C)n(C2CN(CCC(=O)NC3CCCCC3)C2)n1` | -16.88 | 2.926 | 9.492 | -3.578 |
| 34 | `CC(C)(C)c1noc(CCC(=O)NCC2CCS(=O)(=O)C2)n1` (stereo not drawn) | -7.441 | 0.9091 | 31.6 | -5.97 |
| 35 | `COc1ccc2c(ccn2CCC(=O)N[C@H](C(=O)O)C(C)C)c1` | -0.9478 | 1.816 | -0.6579 | -3.888 |
| 36 | `Fc1ccc(COCC2CCN(Cc3ccccn3)CC2)cc1` | -16.12 | 4.573 | - | -3.843 |
| 37 | `CC(O)CCn1ccc2[nH]c(=O)c(C#N)cc2c1=O` (stereo not drawn) | - | 0.2058 | 27.96 | 3.722 |
| 38 | `COc1cc(F)ccc1C(C(=O)O)N(C)CCN1CCCC1` (stereo not drawn) | -1.99 | 0.2415 | 38.47 | -2.364 |
| 39 | `CN1CCC(c2cncc(N(C)C)n2)CC1` | 2.479 | 1.961 | -5.345 | - |
| 40 | `CCCn1ccnc1CN1CCC(Oc2cccc(F)c2)(C(=O)O)CC1` | -13.37 | 12.31 | -18.84 | 5.126 |
| 41 | `CCC(C(=O)NCc1cc(N2CCOCC2)ncn1)n1cccn1` (stereo not drawn) | -12.01 | 7.692 | 16.84 | -4.115 |
| 42 | `CC(NC1CCN(CCS(C)(=O)=O)CC1)c1cnn(C(C)C)c1` (stereo not drawn) | 4.776 | 4.937 | -39.03 | -5.303 |
| 43 | `CC(C)C(=O)N1CCN(C(=O)CCc2nnc(-c3ccccc3)o2)CC1` | -14.66 | 6.427 | 11.95 | -3.698 |
| 44 | `O=C(O)C(F)(F)F.c1cncc(CN2Cc3nccn3CC(Cn3cncn3)C2)c1` (stereo not drawn) | - | - | 38.48 | - |
| 45 | `CC(C)(C)C(=O)NC(c1nccs1)C1CCN(CC2CCCCC2)CC1.Cl` (stereo not drawn) | - | - | 17.51 | - |
| 46 | `CN1CCc2c(c(COc3cncnc3)nn2CC2CC2)C1.O=C(O)C(F)(F)F` | - | - | 9.329 & -6.065 | - |
| 47 | `O=C(O)C(F)(F)F.O=C(O)C(F)(F)F.[H][C@@]12CCN(Cc3ccncc3)C[C@@]1([H])O[C@@H](C(=O)NCCOC)C2` | - | - | 1.498 | - |
| 48 | `CN(Cc1ccon1)C(=O)C1CC(=O)N(Cc2cccnc2)C1` (stereo not drawn) | -15.03 | 2.575 | 16.91 | 0.9675 |
| 49 | `COCCN(Cc1ccoc1)S(=O)(=O)c1ccc(F)c(Cl)c1` | 22.78 | 8.779 | -9.102 | -1.039 |
| 50 | `[H][C@]12CCCCN1CCC[C@H]2CN(C)Cc1nnc(CC)o1` | - | - | 23.49 | - |
| 51 | `O=C(Cn1ccc2ccc(Br)cc21)NCc1ccc(C(=O)O)cc1` | -15.99 | 7.962 | 0.3606 | 0.3178 |
| 52 | `COc1ccc(CCC2CCCCN2)cc1OC` (stereo not drawn) | -13.52 | -1.58 | 29.07 | -5.305 |
| 53 | `COCc1nc2n(n1)CCCC2Nc1nc(C2CC2)ns1` (stereo not drawn) | -16.81 | 2.679 | 2.314 | 0.8881 |
| 54 | `CCc1nc(C2CCCN(C(=O)c3ccncc3)C2)no1` (stereo not drawn) | -11.41 | 0.2611 | 0.02188 | 0.5016 |
| 55 | `Cc1cc(C(=O)N2CC(=O)Nc3cnccc32)c(Cl)cc1F` | -5.32 | 1.467 | 14.8 | 1.644 |
| 56 | `O=C(O)C(F)(F)F.[H][C@@]12C[C@H](C(=O)NC)CN(CC3CC3)[C@]1([H])CCO2` | - | - | 0.8563 | - |
| 57 | `Cc1ncsc1CCN(C)Cc1cc2n(n1)CCN(Cc1ncc[nH]1)C2` | -21.18 | 0.2415 | 25.22 | 3.091 |
| 58 | `N#Cc1cc(NC(=O)c2ccsc2)ccc1N1CCC(O)CC1` | -9.497 | 16.84 | 15.77 | -0.6966 |
| 59 | `CC(C)(C)c1ccc(OCc2nc3c(c(=O)[nH]2)CCNC3)cc1` | -32.72 | -7.807 | 31.97 | 4.937 |
| 60 | `[H][C@@]12COC[C@]1(CNS(C)(=O)=O)CN(C(=O)c1ccccc1)C2` | - | - | 2.363 | - |
| 61 | `O=C1CC2(CCN(C(=O)c3csc(-c4ccccc4)n3)C2)C(=O)N1` (stereo not drawn) | 1.323 | 5.263 | -4.678 | 0.9893 |
| 62 | `O=C(O)C(F)(F)F.O=C(O)C(F)(F)F.[H][C@]12OCCN(C3CCOCC3)[C@@]1([H])CC[C@@H]2OCc1cccnc1` | - | - | 34.24 | - |
| 63 | `[H][C@@]12OCCN(S(=O)(=O)C3CC3)[C@@]1([H])CC[C@H]2OCC1CCCC1` | - | - | 35.04 | - |
| 64 | `Cc1ccc(-c2cnnc(N3CCCC3c3nccs3)n2)o1` (stereo not drawn) | -6.733 | 3.947 | 31.39 | -0.8542 |
| 65 | `CN(C)C(=O)CN1C(=O)CCC12CCN(Cc1ccc(F)cc1)CC2.O=C(O)C(F)(F)F` | - | - | 22.45 | - |

5 of the entries, repeated:

CC(C)(C)c1noc(CCC(=O)NCC2CCS(=O)(=O)C2)n1 (stereo not drawn) read Pks13 thioesterase: -7.441%; CoaBC: 0.9091%; Leishmania in macrophages: 31.6%; MtTrpRS: -5.97%.
Cc1ccc(-c2cnnc(N3CCCC3c3nccs3)n2)o1 (stereo not drawn) read Pks13 thioesterase: -6.733%; CoaBC: 3.947%; Leishmania in macrophages: 31.39%; MtTrpRS: -0.8542%.
COc1cc(F)ccc1C(C(=O)O)N(C)CCN1CCCC1 (stereo not drawn) read Pks13 thioesterase: -1.99%; CoaBC: 0.2415%; Leishmania in macrophages: 38.47%; MtTrpRS: -2.364%.
Cc1ccc(C(=O)N2CCC3(CCN(c4ccsc4)C3=O)C2)cn1 (stereo not drawn) read Pks13 thioesterase: 14.48%; CoaBC: 6.754%; MtTrpRS: 7.301%.
CC(NCc1cccn1C)c1noc(-c2ccc(Cl)cc2)n1 (stereo not drawn) read Pks13 thioesterase: -13.23%; CoaBC: 3.74%; Leishmania in macrophages: 9.909%; MtTrpRS: -2.2%.

Source: ChEMBL document CHEMBL3988442, “University of Dundee, Small-Polar-MMV Screening Library” (2021).